In the supplement of paper PMC6411743:
± gives the standard deviation of the averaged measurements. This is a selection; strong and weak results do not stand in their true shares. Most values lie at the level of the controls, where differences are scatter.

Chains of the proteins cited; added tags and fusions are not shown. Lines headed by an entry give the natural chain unless they say otherwise; changes in a name come on top.
UniProt Q8WVC6: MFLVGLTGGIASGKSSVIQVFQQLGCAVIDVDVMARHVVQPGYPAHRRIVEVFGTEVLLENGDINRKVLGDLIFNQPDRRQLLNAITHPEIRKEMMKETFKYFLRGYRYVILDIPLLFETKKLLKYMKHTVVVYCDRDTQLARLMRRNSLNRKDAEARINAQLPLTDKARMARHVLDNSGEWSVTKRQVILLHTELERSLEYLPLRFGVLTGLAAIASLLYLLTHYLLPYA
UniProt P47736: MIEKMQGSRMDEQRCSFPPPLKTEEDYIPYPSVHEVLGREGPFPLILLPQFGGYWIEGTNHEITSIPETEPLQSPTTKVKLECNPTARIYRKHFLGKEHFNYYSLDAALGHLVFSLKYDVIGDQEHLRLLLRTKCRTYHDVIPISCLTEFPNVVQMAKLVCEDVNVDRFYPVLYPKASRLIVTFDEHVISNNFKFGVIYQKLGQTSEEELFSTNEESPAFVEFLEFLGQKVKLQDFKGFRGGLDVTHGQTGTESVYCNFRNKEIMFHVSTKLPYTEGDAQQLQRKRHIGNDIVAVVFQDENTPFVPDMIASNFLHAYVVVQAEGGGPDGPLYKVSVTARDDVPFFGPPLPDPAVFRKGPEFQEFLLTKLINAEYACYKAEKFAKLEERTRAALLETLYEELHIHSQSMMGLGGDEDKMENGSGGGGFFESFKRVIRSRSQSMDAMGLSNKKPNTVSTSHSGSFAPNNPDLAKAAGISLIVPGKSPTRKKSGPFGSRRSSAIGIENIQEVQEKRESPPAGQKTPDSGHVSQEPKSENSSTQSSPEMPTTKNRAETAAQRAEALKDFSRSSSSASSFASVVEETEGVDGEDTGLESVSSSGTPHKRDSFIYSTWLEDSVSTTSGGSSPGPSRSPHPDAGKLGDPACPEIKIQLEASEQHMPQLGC
UniProt Q9Y3E5: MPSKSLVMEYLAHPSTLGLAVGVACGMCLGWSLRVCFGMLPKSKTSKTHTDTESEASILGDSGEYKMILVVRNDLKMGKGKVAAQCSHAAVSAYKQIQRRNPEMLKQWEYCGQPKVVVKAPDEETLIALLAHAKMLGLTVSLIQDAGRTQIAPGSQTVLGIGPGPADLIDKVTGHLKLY
UniProt L0R6Q1: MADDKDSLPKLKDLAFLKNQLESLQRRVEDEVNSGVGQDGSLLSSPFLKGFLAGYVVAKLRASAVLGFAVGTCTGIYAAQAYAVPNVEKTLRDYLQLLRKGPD
UniProt O15078: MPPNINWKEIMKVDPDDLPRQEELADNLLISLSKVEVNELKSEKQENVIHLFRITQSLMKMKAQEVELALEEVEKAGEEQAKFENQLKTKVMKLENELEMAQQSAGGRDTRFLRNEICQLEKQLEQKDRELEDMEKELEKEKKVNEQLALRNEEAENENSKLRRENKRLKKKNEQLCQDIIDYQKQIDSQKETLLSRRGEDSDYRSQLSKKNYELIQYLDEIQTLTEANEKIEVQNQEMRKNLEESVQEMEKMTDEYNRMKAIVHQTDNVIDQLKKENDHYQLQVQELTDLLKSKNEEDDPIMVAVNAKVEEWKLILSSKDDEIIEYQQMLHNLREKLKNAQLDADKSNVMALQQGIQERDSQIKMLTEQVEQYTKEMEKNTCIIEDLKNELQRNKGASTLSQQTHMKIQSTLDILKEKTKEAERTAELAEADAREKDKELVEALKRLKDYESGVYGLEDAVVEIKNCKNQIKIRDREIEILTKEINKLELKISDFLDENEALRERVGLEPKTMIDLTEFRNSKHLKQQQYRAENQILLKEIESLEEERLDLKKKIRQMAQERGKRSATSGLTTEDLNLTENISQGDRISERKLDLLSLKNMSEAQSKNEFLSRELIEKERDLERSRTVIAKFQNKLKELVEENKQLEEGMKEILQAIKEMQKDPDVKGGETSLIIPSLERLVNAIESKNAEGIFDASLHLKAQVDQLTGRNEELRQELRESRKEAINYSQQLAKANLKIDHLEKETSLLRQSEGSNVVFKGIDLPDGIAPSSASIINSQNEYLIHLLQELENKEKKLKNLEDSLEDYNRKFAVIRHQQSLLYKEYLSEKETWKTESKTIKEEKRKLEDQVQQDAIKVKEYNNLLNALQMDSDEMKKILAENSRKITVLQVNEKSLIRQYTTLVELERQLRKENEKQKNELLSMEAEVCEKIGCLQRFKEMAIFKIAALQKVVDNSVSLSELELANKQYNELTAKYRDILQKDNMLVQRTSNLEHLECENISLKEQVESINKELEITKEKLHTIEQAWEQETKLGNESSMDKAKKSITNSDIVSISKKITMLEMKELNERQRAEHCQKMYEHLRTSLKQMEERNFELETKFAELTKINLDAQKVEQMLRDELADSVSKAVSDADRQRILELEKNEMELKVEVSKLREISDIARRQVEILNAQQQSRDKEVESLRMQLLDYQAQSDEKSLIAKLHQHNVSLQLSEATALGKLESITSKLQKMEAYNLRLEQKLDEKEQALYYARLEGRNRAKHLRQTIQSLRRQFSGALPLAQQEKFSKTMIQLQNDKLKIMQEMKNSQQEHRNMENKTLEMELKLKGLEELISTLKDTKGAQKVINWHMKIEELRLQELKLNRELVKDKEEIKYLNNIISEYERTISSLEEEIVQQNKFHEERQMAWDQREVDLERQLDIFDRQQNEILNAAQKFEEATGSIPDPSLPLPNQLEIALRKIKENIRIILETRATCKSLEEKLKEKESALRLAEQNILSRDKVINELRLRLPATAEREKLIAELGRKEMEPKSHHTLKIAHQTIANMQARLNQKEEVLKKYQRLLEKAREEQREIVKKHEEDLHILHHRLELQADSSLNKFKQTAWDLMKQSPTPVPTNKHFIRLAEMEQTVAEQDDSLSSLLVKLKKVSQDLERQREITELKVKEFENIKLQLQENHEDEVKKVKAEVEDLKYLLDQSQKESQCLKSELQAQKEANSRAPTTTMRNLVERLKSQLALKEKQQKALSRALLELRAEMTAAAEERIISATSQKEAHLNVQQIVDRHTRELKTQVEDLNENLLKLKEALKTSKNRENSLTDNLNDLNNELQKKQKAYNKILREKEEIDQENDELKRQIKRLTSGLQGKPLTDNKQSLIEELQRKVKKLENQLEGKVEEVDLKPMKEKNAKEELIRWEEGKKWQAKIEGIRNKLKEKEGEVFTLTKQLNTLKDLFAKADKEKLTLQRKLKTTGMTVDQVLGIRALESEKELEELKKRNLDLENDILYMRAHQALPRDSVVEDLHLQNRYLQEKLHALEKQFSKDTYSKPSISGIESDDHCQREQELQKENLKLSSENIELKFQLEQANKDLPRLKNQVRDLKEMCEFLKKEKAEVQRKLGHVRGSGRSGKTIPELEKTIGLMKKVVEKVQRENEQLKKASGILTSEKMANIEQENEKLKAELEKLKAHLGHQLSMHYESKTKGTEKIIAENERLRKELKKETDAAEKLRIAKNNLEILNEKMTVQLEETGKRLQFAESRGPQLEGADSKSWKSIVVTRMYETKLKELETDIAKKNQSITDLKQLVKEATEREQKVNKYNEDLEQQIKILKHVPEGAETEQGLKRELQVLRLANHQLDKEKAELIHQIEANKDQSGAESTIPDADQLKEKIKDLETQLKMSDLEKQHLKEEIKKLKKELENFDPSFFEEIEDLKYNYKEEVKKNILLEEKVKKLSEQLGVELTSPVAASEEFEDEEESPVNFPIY
UniProt Q96B54: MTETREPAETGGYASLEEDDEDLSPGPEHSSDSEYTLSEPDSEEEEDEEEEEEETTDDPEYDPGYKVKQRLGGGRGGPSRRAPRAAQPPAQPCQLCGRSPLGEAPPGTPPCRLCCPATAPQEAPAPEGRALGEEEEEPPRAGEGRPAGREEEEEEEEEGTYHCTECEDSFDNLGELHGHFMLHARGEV
UniProt P52429: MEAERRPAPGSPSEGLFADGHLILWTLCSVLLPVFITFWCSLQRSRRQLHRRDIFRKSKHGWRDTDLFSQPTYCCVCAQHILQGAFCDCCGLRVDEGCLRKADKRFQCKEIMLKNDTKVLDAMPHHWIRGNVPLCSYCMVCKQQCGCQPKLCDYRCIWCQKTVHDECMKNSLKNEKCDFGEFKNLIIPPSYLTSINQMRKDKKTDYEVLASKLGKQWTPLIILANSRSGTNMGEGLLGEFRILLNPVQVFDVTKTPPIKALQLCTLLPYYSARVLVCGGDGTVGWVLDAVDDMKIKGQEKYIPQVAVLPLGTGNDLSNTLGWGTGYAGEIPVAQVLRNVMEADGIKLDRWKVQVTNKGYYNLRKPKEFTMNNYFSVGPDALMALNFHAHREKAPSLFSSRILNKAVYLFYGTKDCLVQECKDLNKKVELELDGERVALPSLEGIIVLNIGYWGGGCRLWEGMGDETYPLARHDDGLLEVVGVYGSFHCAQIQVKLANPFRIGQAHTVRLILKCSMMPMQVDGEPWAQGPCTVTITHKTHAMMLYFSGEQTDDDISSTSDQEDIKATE
UniProt O75427: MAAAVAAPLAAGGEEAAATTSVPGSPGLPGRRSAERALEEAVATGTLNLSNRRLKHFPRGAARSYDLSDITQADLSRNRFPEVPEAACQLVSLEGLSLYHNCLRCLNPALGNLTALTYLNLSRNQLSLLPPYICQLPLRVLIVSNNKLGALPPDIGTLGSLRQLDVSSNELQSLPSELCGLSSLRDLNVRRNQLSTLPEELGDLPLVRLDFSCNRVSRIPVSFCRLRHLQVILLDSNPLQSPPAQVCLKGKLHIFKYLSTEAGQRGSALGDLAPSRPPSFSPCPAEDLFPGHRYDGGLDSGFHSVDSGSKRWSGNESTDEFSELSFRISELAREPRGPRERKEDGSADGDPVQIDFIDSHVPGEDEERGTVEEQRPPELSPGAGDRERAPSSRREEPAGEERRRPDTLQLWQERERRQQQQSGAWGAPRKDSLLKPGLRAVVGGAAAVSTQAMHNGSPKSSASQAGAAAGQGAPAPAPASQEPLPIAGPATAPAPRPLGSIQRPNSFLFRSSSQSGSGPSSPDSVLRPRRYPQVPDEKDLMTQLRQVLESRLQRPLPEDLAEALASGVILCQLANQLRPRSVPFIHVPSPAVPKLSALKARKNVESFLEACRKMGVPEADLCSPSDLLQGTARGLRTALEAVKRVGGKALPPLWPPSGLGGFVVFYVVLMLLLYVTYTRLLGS
UniProt Q96G21: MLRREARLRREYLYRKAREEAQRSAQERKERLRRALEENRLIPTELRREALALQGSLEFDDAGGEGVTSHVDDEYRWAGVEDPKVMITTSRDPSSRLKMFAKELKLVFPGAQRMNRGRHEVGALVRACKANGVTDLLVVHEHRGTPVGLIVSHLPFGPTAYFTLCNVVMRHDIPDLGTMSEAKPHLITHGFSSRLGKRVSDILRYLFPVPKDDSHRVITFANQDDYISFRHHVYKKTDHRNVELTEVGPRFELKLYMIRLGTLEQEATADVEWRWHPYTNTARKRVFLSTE
UniProt Q9NXE4: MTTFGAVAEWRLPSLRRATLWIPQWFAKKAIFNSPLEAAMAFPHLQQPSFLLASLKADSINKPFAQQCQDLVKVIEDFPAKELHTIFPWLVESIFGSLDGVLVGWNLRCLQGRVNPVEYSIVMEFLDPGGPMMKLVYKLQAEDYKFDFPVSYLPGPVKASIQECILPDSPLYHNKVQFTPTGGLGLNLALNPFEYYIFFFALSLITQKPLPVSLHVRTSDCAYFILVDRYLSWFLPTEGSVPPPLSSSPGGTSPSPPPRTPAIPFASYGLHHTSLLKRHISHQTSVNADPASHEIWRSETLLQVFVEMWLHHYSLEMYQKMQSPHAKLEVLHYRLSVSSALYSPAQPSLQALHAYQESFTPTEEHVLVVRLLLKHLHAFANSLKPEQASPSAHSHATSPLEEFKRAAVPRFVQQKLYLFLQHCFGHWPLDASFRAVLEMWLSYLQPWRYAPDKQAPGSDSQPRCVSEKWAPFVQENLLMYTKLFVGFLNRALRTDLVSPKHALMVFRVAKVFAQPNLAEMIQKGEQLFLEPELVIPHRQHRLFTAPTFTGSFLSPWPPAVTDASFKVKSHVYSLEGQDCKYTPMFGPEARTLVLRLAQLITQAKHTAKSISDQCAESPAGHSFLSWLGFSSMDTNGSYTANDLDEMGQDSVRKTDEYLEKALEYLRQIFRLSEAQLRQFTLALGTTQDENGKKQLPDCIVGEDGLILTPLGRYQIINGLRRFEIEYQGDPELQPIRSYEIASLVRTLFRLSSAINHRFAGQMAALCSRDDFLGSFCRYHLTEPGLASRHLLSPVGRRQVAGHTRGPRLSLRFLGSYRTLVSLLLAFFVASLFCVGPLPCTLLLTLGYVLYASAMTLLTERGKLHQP
UniProt Q9BQE5: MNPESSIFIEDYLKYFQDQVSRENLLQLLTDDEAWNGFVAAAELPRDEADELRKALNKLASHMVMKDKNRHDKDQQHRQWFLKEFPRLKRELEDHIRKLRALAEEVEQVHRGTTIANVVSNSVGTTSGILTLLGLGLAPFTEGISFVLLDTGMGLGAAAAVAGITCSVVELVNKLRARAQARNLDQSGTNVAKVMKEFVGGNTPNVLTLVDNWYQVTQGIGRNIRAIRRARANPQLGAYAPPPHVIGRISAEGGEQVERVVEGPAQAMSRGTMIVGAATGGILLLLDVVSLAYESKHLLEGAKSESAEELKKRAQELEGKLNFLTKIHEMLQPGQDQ

Compound: Nc1ncnc2c1ncn2[C@@H]1O[C@H](COP(=O)(O)OP(=O)(O)OP(=O)(O)O)[C@@H](O)[C@H]1O [adenosine triphosphate]
Assay: NP40-soluble protein abundance relative to vehicle (solubility fold change) (ratio); higher = more soluble protein in presence of ATP
Outline: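 Values are fold changes against the detergent-processed vehicle, based on vsn-normalised intensities. Jurkat crude lysate was treated at eight concentrations from 0.1 to 10 mM (10 min at room temperature, then 3 min at 37 °C), solubilised with 0.8% NP40 and benzonase, ultracentrifuged and analysed by TMT-labelled LC-MS/MS over three independent experiments.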

Row | Target | NP40-soluble protein abundance (concentration: 0.1mM) | NP40-soluble protein abundance (concentration: 0.5mM)
1 | H0Y2P2 and related entries (UniProt Q96IV0) | 0.977 ± 0.04 | 0.969 ± 0.032
2 | J3KR58 and related entries (UniProt Q99611) | 1.06 ± 0.038 | 1.03 ± 0.097
3 | H0YAA2 and related entries (UniProt O43660) | 0.984 ± 0.036 | 0.982 ± 0.036
4 | K7ENQ8 and related entries (UniProt Q15438) | 1.04 ± 0.088 | 1.02 ± 0.059
5 | K7EQ37 and related entries (UniProt Q70J99) | 1.06 ± 0.08 | 1.03 ± 0.042
6 | K7ENF0 and related entries (UniProt O43776) | 1.02 ± 0.055 | 1 ± 0.06
7 | H7BXF5 and related entries (UniProt Q9H0E3) | 0.995 ± 0.035 | 1.01 ± 0.042
8 | I3L1K6 and related entries (UniProt P12829) | 0.925 ± 0.17 | 0.861 ± 0.17
9 | K7ESP4 and related entries (UniProt Q8WVC6) | 1.167 ± 0.0036 | 1.26 ± 0.083
10 | I3L3S0 and related entries (UniProt Q9Y5R8) | 0.996 ± 0.064 | 0.921 ± 0.094
11 | H0YKC9 and related entries (UniProt Q9HA82) | 1.01 ± 0.029 | 1.07 ± 0.038
12 | H7BYT1 and related entries (UniProt P48730) | 1.04 ± 0.093 | 1.14 ± 0.18
13 | H7BYJ1 and related entries (UniProt Q969K3) | 0.969 ± 0.04 | 0.931 ± 0.016
14 | K7EP14 and related entries (UniProt P07992) | 1 ± 0.02 | 0.946 ± 0.038
15 | H7C096 and related entries (UniProt Q12982) | 0.978 ± 0.06 | 0.966 ± 0.076
16 | H0Y4B0 and related entries (UniProt O43414) | 1.09 ± 0.086 | 1.04 ± 0.05
17 | K7EKG9 and related entries (UniProt Q14CW9) | 1.03 ± 0.051 | 0.984 ± 0.084
18 | H7BZJ3 and related entries (UniProt P30101) | 0.936 ± 0.09 | 0.961 ± 0.14
19 | J3KMZ7 and related entries (UniProt Q9H0H0) | 1.01 ± 0.1 | 1.07 ± 0.13
20 | J3KPC5 and related entries (UniProt P47736) | 1 ± 0.045 | 0.967 ± 0.049
21 | H0Y360 and related entries (UniProt Q01433) | 1.02 ± 0.05 | 0.993 ± 0.029
22 | J3QL56 and related entries (UniProt O75880) | 0.855 ± 0.07 | 0.873 ± 0.14
23 | H7C5A7 and related entries (UniProt O14734) | 1.02 ± 0.039 | 0.997 ± 0.017
24 | J3KQ48 and related entries (UniProt Q9Y3E5) | 1.05 ± 0.0045 | 1.02 ± 0.03

Row | Target | NP40-soluble protein abundance (concentration: 0.1mM) | NP40-soluble protein abundance (concentration: 0.5mM)
25 | J3QLM1 and related entries (UniProt Q14849) | 1.06 ± 0.15 | 1.2 ± 0.31
26 | H3BQD1 and related entries (UniProt Q93009) | 1.07 ± 0.089 | 1.06 ± 0.083
27 | SLC35A4 (UniProt L0R6Q1) | 0.807 ± 0.2 | 0.786 ± 0.22
28 | J3KNF5 and related entries (UniProt O15078) | 1.01 ± 0.013 | 0.966 ± 0.049
29 | J3KQ40 and related entries (UniProt O95759) | 1.09 ± 0.18 | 1.03 ± 0.12
30 | H0Y2S9 and related entries (UniProt Q6WCQ1) | 0.974 ± 0.076 | 1.13 ± 0.03
31 | H0YCP6 and related entries (UniProt Q5T3F8) | 0.96 ± 0.059 | 0.888 ± 0.08
32 | H3BV23 and related entries (UniProt Q96S82) | 0.928 ± 0.097 | 0.865 ± 0.13
33 | M0QXZ5 and related entries (UniProt Q96B54) | 0.941 ± 0.042 | 0.975 ± 0.19
34 | I3L112 and related entries (UniProt P52429) | 0.987 ± 0.021 | 0.904 ± 0.057
35 | H0YN65 and related entries (UniProt Q8NCH0) | 0.892 ± 0.22 | 0.841 ± 0.028
36 | H3BUJ7 and related entries (UniProt Q66K89) | 1.04 ± 0.095 | 1.03 ± 0.017
37 | I3VM54 and related entries (UniProt Q9Y2K7) | 1.06 ± 0.051 | 1.16 ± 0.043
38 | UniProt I3L0E3 | 0.961 ± 0.061 | 0.951 ± 0.035
39 | H7C5D9 and related entries (UniProt O75427) | 0.937 ± 0.032 | 1.03 ± 0.073
40 | K7ELC7 and related entries (UniProt P61353) | 0.916 ± 0.042 | 0.948 ± 0.056
41 | H0Y714 and related entries (UniProt Q96G21) | 0.944 ± 0.14 | 0.982 ± 0.19
42 | J3QQK6 and related entries (UniProt P02686) | 0.909 ± 0.089 | 0.788 ± 0.1
43 | H7BXF4 and related entries (UniProt Q9NXE4) | 1.04 ± 0.14 | 1.04 ± 0.1
44 | J3KQL8 (UniProt Q9BQE5) | 1.05 ± 0.04 | 1.02 ± 0.013
45 | K7EL60 and related entries (UniProt O75821) | 0.962 ± 0.026 | 1.01 ± 0.069
46 | K7EPJ5 and related entries (UniProt O60291) | 0.921 ± 0.044 | 0.893 ± 0.067
47 | K7ELQ9 and related entries (UniProt Q6UW68) | 1.06 ± 0.079 | 1.09 ± 0.019

Look-ups from above.
NP40-soluble protein abundance (concentration: 0.1mM) with J3KNF5 and related entries (UniProt O15078) is entered as 1.01 ± 0.013
NP40-soluble protein abundance (concentration: 0.5mM) with K7ELC7 and related entries (UniProt P61353) is entered as 0.948 ± 0.056
NP40-soluble protein abundance (concentration: 0.1mM) with J3KQL8 (UniProt Q9BQE5) is entered as 1.05 ± 0.04
